Data reported in patent US7348140B1, “Clinical indications for genotyping polymorphic variants of G-protein coupled receptors” (Acadia Pharmaceuticals, Inc., priority 2001, dated 2008).

Sequences of proteins named here, by UniProt entry; tags and fusion partners are left off.
UniProt P41595, whole entry: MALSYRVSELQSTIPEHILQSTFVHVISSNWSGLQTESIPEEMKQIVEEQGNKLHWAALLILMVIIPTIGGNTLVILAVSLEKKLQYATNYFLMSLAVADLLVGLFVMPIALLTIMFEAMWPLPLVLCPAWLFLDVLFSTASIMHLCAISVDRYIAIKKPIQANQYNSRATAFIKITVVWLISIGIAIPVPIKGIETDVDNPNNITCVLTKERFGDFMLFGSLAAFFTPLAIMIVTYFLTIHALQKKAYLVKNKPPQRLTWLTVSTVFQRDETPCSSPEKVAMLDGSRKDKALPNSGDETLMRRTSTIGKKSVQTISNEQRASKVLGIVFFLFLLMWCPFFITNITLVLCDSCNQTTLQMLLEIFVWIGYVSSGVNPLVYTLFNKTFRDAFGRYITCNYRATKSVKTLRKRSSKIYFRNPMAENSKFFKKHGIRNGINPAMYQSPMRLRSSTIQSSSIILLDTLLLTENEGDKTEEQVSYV

Target: serotonin 2B receptor (Arginine 388) (Homo sapiens, UniProt P41595)
Assay: cell-based

CC[C@@H](CO)NC(=O)[C@@H]1C=C2c3cccc4c3c(cn4C)C[C@H]2N(C)C1 [Methysergide]
EC50: 0.55 nM
